Consider 1 sequence from paper PMC13483900.

Chains of the proteins cited; added tags and fusions are not shown. Chains listed by the source or under a name are the forms on record and can include a tag or linker.
CST (CTC1-STN1-TEN1) (human), one chain, as listed by the source, chain 2 of 3: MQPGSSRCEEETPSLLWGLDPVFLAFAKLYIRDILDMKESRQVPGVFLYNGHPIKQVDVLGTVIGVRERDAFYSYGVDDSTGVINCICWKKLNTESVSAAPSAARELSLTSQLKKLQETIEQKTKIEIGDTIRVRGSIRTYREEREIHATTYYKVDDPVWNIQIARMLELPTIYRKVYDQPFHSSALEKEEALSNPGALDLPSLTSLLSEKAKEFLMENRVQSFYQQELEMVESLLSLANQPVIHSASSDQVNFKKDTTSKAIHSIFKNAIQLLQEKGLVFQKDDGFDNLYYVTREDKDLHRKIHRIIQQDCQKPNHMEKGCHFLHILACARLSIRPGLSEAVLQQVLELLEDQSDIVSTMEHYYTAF
CST (CTC1-STN1-TEN1) (human), one chain, as listed by the source, chain 3 of 3: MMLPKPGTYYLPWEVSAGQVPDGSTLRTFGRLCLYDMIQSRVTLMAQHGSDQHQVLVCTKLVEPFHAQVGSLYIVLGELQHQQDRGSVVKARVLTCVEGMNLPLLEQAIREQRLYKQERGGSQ
TPP1/POT1 (human), one chain, as listed by the source, chain 2 of 2: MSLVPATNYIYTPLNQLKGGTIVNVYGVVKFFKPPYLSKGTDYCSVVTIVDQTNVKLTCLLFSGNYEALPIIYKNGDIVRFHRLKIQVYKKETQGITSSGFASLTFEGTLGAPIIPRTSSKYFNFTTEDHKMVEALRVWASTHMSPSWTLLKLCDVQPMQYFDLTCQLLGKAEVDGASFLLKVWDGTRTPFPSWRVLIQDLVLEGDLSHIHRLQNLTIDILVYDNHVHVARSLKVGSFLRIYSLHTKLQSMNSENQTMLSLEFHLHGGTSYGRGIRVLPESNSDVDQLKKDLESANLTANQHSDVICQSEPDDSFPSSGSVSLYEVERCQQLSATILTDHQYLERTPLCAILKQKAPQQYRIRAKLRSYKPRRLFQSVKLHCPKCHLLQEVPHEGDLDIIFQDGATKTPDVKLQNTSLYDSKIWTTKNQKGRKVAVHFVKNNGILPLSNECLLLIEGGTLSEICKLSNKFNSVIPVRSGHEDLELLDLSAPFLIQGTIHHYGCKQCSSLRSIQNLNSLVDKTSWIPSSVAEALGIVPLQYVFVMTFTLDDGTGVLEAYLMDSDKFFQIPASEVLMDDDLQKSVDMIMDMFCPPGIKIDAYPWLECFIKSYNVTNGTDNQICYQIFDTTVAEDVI
TPP1/POT1 (human), one chain, as listed by the source, chain 1 of 2: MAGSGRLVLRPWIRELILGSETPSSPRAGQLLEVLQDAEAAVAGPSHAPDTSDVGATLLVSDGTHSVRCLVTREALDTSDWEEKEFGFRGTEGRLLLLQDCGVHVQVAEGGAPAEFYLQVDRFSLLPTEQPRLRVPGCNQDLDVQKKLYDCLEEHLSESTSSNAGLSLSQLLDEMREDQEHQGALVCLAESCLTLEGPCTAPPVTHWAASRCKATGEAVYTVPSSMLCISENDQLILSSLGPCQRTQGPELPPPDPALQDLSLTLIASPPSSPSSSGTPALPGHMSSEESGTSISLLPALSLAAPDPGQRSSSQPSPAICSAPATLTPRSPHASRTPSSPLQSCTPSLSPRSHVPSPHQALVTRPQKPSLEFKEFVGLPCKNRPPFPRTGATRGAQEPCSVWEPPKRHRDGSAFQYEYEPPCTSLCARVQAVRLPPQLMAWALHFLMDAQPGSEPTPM
CST (CTC1-STN1-TEN1) (human), one chain, as listed by the source, chain 1 of 3: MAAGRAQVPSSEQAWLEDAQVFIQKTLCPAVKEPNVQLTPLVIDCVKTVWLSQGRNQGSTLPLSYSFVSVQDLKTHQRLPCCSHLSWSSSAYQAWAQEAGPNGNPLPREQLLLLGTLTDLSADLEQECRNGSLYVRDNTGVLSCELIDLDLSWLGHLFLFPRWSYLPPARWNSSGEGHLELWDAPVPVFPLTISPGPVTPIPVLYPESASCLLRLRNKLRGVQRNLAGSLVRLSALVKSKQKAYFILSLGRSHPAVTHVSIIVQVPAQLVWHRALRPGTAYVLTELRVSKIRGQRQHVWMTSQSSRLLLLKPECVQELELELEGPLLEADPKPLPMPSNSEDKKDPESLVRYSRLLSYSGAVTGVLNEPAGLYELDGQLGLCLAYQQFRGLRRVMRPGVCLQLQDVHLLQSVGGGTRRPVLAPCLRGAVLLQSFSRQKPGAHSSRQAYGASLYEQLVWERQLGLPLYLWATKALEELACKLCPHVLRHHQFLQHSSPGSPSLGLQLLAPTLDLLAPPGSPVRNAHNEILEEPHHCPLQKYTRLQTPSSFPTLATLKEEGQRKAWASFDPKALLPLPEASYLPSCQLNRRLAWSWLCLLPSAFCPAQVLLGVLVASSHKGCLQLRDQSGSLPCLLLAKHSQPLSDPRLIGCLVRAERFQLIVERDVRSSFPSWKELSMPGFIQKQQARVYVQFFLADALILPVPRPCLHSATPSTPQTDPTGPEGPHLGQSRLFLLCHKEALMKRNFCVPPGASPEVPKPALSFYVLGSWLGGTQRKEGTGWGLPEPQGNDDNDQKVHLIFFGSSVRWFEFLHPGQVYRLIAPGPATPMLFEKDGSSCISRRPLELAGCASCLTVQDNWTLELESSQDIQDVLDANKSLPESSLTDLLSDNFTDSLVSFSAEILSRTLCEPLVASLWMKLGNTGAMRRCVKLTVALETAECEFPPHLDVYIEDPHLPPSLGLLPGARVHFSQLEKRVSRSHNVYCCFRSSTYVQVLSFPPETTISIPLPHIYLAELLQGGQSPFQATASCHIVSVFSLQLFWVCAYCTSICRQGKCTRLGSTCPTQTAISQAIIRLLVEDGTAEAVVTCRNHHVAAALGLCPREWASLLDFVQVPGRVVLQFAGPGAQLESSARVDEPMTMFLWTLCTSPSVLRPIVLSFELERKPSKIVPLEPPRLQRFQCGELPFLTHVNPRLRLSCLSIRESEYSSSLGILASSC

For at least one entry, the source does not settle the construct or the ends of the probe. At least one verdict rests on a figure or table, not on a statement of the authors.

Data set [1] deals with CST (CTC1-STN1-TEN1) (human). Description: pull-down. The settings on record: streptavidin beads, 10 mM Mg(OAc)2, CST displaces TPP1/POT1 from the ssDNA; pull-down: 25 mM HEPES-KOH pH 7.6, 80 mM K-glutamate, 10 mM Mg(OAc)2, 5% glycerol, 0.02% Tween-20, 1 mM TCEP, 0.1 mM EDTA, 15 min 37 C; recombinant protein; protein details: 3xFLAG-CTC1, 6xHis-TEN1; label: 5' biotin (streptavidin beads); single-stranded DNA.

For the next data set, the system named is TPP1/POT1 (human). Briefly: pull-down. The settings on record: streptavidin beads, 10 mM Mg(OAc)2, competed off by CST; pull-down: 25 mM HEPES-KOH pH 7.6, 80 mM K-glutamate, 10 mM Mg(OAc)2, 5% glycerol, 0.02% Tween-20, 1 mM TCEP, 0.1 mM EDTA, 15 min 37 C; recombinant protein; protein details: StrepII on TPP1; label: 5' biotin (streptavidin beads); single-stranded DNA.

“TTAGGGTTAGGGTTAGGGCGTCTATATTCTATTGTCTC [CLB401 telomeric ssDNA, 3x TTAGGG at 5' end]”: the binding result (in data set [1]; with TPP1/POT1 (human)) was “binds” throughout.
